Measurements: PubChem BioAssay AID1471 (National Center for Advancing Translational Sciences (NCATS), 2008)
Values joined by “and” are separate entries in the source; they are usually repeats but may differ in a detail not shown here. Equal values may be shown once. The whole screen tested about 230,000 compounds, of which about 310 (0.13%) were called active. The shares of active, inactive and inconclusive entries below differ from those in the screen. Calls follow the shape of the dose curve; as a rule, active = well fitted activation curve with a large enough effect; inconclusive = small, poorly fitted or top-dose-only effect; inactive = no such curve, though single readings can be large or run the other way. Potencies beside an inconclusive call are fits to weak or partial responses and may not hold up.

test: qHTS Multiplex Assay to Identify Dual Action Probes in a Cell Model of Huntington: Cytoprotection (ATP); settings: PC12 HTT-Q103 induced, ATP luminescence, 40 h; cytoprotection (ATP increase): at 56.4 µM (top of the series) unless noted; also: nearly all actives have a fitted effect of over 45% in size;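 as to cytoprotection (ATP increase): toxic huntingtin expression switched on by the ecdysone agonist tebufenozide; % of control where 0% means no effect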
Method in brief: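 Huntington model: PC12 line, ecdysone-inducible HTTQ103 exon1–GFP, tebufenozide 100 nM. Test articles in a dose series. Endpoint luminescence from cellular ATP.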
Potency is read from the fitted curve at half-maximal effect.

Row | SMILES | Potency | cytoprotection (ATP increase)
1 | C=CCn1c(SCc2cc(=O)n3ccsc3n2)nc2cc(Cl)ccc2c1=O | inconclusive: 0.282 µM [activator, single point] | 
2 | CCCC(C)C(=O)OCC(=O)NCc1ccc(OC)c(OC)c1 (stereo not given) | inconclusive: 0.316 µM [activator, partial curve] | 
3 | O=c1cc(-c2c(F)c(F)c(F)c(F)c2F)oc2ccccc12 | inconclusive: 35.5 µM [activator, single point] | 
4 | CC1(c2ccc3c(c2)OCO3)NC(=O)N(CC(=O)Nc2ccc(N3CCOCC3)cc2)C1=O (stereo not given) | inconclusive: 3.55 µM [activator, partial curve] | 
5 | O=C(O)CSc1ncccc1[N+](=O)[O-] |  | inactive: -2.23% [at 10 µM]
6 | CCC1OC(=O)C(C)[C@@H](O[C@H]2C[C@@](C)(OC)C(O)C(C)O2)C(C)[C@@H](O[C@@H]2OC(C)CC(N(C)C)C2O)[C@@](C)(O)CC(C)CN(C)C(C)C(O)[C@]1(C)O (stereo not given in full) | inconclusive: 0.141 µM [activator, partial curve, poor fit] | 
7 | O=C(CSc1nccn1-c1ncc(C(F)(F)F)cc1Cl)c1ccc(Br)cc1 | inconclusive: 3.55 µM [activator, single point] | 
8 | COc1ccc(N(C(=O)Cn2nnc(-c3ccc(Cl)cc3)n2)C(C(=O)NCC2CCCO2)c2ccncc2)cc1 (stereo not given) | inconclusive: 4.47 µM [activator, single point] | 
9 | CC1CCN(CCCC(=O)c2ccc(F)cc2)CC1 | inconclusive: 0.0011 µM [activator, full curve, poor fit] | 
10 | Cn1c(=O)c(-c2ccc(Cl)cc2)nc2cnc(N3CCNCC3)nc21 | inactive | 
11 | CCCCCCCCCCCCC(C(=O)O)C(C)C(=O)O (stereo not given) | inactive | 
12 | CCN1CCC[C@H]1CNC(=O)c1cc(S(N)(=O)=O)ccc1OC | inconclusive: 199 nM [activator, full curve, poor fit] and inconclusive: 35.5 µM [activator, single point] | 
13 | O=C1CC(/C=C/c2ccncc2)=Nc2ccccc2N1 | inconclusive: 2 µM [activator, partial curve] | 
14 | COc1ccc(C[C@@](C)(N)C(=O)O)cc1OC | inconclusive: 14.1 µM [activator, single point] | 
15 | COc1ccccc1C(C)NCC(=O)NCC(=O)Nc1ccc(F)c(F)c1F (stereo not given) | inconclusive: 0.0056 µM [activator, full curve, poor fit] | 
16 | N#CCCn1c(=O)c(-c2ccccc2)nc2cnc(Oc3ccccc3)nc21 | inconclusive: 0.501 µM [activator, full curve, poor fit] | 
17 | O=C1CC(N2CCCCC2)C(=O)N1c1ccccc1 (stereo not given) |  | inactive: -12.2% [at 10 µM]
18 | O=S(=O)(NC(=S)NC1CCCCC1)c1ccc(Cl)cc1 | inactive | 
19 | O=S(=O)(NCCCCCCc1ccccc1)c1cccc2c(Cl)cccc12 | inconclusive: 15.8 µM [activator, partial curve, poor fit] | 
20 | Cc1cccc(CN2CCN(Cc3ccc4nonc4c3)CC2CCO)n1 (stereo not given) | inconclusive: 25.1 µM [activator, single point] | 
21 | O=C(Nc1ccccc1)N1CC2(CCN(C(=O)c3cc(C(F)(F)F)cc(C(F)(F)F)c3)CC2)C1 | inactive | 
22 | O=C(N/N=C1/C[C@@H](O)[C@@H](O)[C@@H]2[C@@H]3C(=O)N(Cc4ccccc4)C(=O)[C@H]3CC[C@@H]12)OCc1ccccc1 |  | inactive: -8.14% [at 10 µM]

Row | SMILES | Potency | cytoprotection (ATP increase)
23 | CC(=O)N(c1ccccc1C)C1CCCC1 | inconclusive: 3.55 µM [activator, single point] | 
24 | O=C(N/N=C/c1cccc(OCC(=O)N2CCCC2)c1)C(=O)Nc1ccccc1F | inconclusive: 1 µM [activator, single point] | 
25 | NC(=O)c1sc2nc3c(c(-c4cccs4)c2c1N)CCCC3 | active: 15.8 µM | 
26 | O=C(Nc1cccnc1Cl)c1cccc(F)c1 | inconclusive: 5.62 µM [activator, single point] | 
27 | O=C(NCCN=C1NS(=O)(=O)c2ccccc21)c1ccc2nccnc2c1 | inactive | 
28 | O=C1C2=CC[C@H]3C(=O)N(C4CCCCC4)C(=O)[C@@H]3[C@@H]2[C@H](O)[C@@H]2O[C@H]12 | inconclusive: 3.16 µM [activator, single point] | 
29 | Cc1occc1C(=O)NCc1ccccc1 | inactive | 
30 | Cc1noc(NS(=O)(=O)c2ccc(N/C=C/C(=O)c3ccc(F)cc3)cc2)c1C | inconclusive: 25.1 µM [activator, single point] | 
31 | C[N+]1(CC2COC(c3ccccc3)(C3CCCCC3)O2)CCCCC1 (stereo not given) | inactive | 
32 | Cc1ccccc1S(=O)(=O)Nc1ncc(C(F)(F)F)cc1Cl | inconclusive: 0.0056 µM [activator, full curve, poor fit] | 
33 | Cc1ccc(C2(O)CN(c3ccccc3C)C3=[N+]2CCS3)cc1 (stereo not given) |  | inactive: 20.5% [at 10 µM]
34 | CCSC1=C(C#N)C(c2ccc3c(c2)OCO3)C2=C(CCCC2=O)N1 (stereo not given) | inactive | 
35 | O=c1c(-c2cccc(Cl)c2)nc2cncnc2n1Cc1ccccc1Cl | inconclusive: 35.5 µM [activator, single point] | 
36 | CS(=O)(=O)N(CC(=O)Nc1ccc(C(N)=O)cc1)C1CCCCC1 | inconclusive: 3.55 µM [activator, single point] | 
37 | O=C1CCCC/C1=C\Nc1ccc(O)cc1 | inconclusive: 0.1 µM [activator, full curve, poor fit] | 
38 | CC(C)CO/N=C1/C[C@@H](O)[C@@H](O)[C@@H]2[C@@H]3C(=O)N(C[C@@H]4CCCO4)C(=O)[C@H]3CC[C@H]12 | inconclusive: 0.447 µM [activator, full curve, poor fit] | 
39 | Cc1csc(SCC(=O)Nc2ccc(S(=O)(=O)N3CCCC3)cc2)n1 |  | inactive: 1.15% [at 10 µM]
40 | Cc1nc(CSc2nsc(/C=C/N(C)C)c2C#N)cs1 | inactive | 
41 | COc1ccc(CNC(=O)CN(Cc2ccc(OC)cc2)C(=O)c2csnn2)cc1 |  | inactive: -21.3% [at 10 µM]
42 | COc1ccc(NC(=S)N(CCc2ccc(OC)c(OC)c2)Cc2ccccn2)cc1 |  | inactive: 9.31% [at 10 µM]
43 | COc1cccc(NC(=O)N2CCCC2C(=O)Nc2ccc3c(c2)OCCO3)c1 (stereo not given) | inconclusive: 1.26 µM [activator, single point] | 
44 | CCCCn1c(SCC(=O)Nc2cc(C)on2)nnc1-c1cccnc1 |  | inactive: 0.485% [at 1.9 µM]

Pulled one by one from above, 4 records:
Row | SMILES | Potency | cytoprotection (ATP increase)
33 | Cc1ccc(C2(O)CN(c3ccccc3C)C3=[N+]2CCS3)cc1 (stereo not given) |  | inactive: 20.5% [at 10 µM]
35 | O=c1c(-c2cccc(Cl)c2)nc2cncnc2n1Cc1ccccc1Cl | inconclusive: 35.5 µM [activator, single point] | 
44 | CCCCn1c(SCC(=O)Nc2cc(C)on2)nnc1-c1cccnc1 |  | inactive: 0.485% [at 1.9 µM]
32 | Cc1ccccc1S(=O)(=O)Nc1ncc(C(F)(F)F)cc1Cl | inconclusive: 0.0056 µM [activator, full curve, poor fit] | 

(list continues)

Row | SMILES | Potency | cytoprotection (ATP increase)
45 | Cc1cccc(-n2ncc3c(NCc4ccccc4)ncnc32)c1 | inactive | 
46 | CCCCC(=Nc1ccc(N)cc1)C1=C(O)C(C(=O)OC)C(C)(C)CC1=O (stereo not given) | inactive | 
47 | O=C(O)c1ccc(/C=C/c2ccc3cccc(O)c3n2)cc1 | inconclusive: 0.282 µM [activator, partial curve, poor fit] | 
48 | O=c1[nH]c(=O)n([C@H]2C[C@H](O)[C@@H](CO)O2)cc1/C=C/Br | inconclusive: 0.1 µM [activator, full curve, poor fit] | 
49 | O=[N+]([O-])c1ccc(-c2csc(N/N=C/c3cccnc3)n2)cc1 | inconclusive: 0.447 µM [activator, partial curve] | 
50 | COc1ccc(-c2cc(-c3ccccc3)c(C#N)c(S(C)(=O)=O)n2)cc1 | inconclusive: 35.5 µM [activator, single point] | 
51 | COC(=O)C1=C(C)N(C)C(=S)NC1c1cc(OC)ccc1OC (stereo not given) | inconclusive: 1.26 µM [activator, single point] | 
52 | C[C@@H]1OC2C3=C(C(=O)[C@H]4O[C@@H]4[C@H]3O)[C@@H]1[C@H]1[C@H](C)OC=C3[C@H](O)[C@H]4O[C@H]4/C(=N\OCc4ccccc4)[C@@]321 | inconclusive: 5.62 µM [activator, partial curve, poor fit] | 
53 | N#CC1=C(N)NC(=S)C(C(N)=O)C1c1ccc(Cl)cc1Cl (stereo not given) | inconclusive: 4.47 µM [activator, single point] | 
54 | Cc1cc(C(=O)NCc2cccs2)ccc1[N+](=O)[O-] | inconclusive: 5.62 µM [activator, single point] | 
55 | Cc1cccc(OCC(=O)NCC(=O)N/N=C/c2cccs2)c1 | inconclusive: 0.891 µM [activator, single point] | 
56 | O=C(NCc1ccc2c(c1)OCO2)O[C@@H]1C(=O)c2cc(Br)ccc2O[C@H]1c1ccc2c(c1)OCO2 | inactive | 
57 | CCOC(=O)c1cc(-c2cccc([N+](=O)[O-])c2)nc2[nH]c(=O)[nH]c(=O)c12 | inconclusive: 3.98 µM [activator, single point] | 
58 | Oc1ccc(Nc2nc3ccccc3nc2Nc2ccc(O)cc2)cc1 | inconclusive: 4.47 µM [activator, single point] | 
59 | Oc1cccc2ccc(/C=C/c3c(F)cccc3Cl)nc12 | inactive | 
60 | Cc1ccc(N)cc1O | inconclusive: 31.6 µM [activator, single point] | 
61 | O=C(CN1C(=O)C2CC=CCC2C1=O)OCc1cc(=O)n2cc(Br)ccc2n1 (stereo not given) | inconclusive: 1 µM [activator, single point] | 
62 | O=C(CNCc1ccc(Cl)cc1)Nc1cccc(C(=O)O)c1 | inconclusive: 12.6 µM [activator, single point] | 
63 | C[C@H]1COC(=O)[C@H](Cc2ccccc2)NC(=O)[C@@H](C)COC(=O)[C@H](Cc2ccccc2)NC1=O | inconclusive: 0.0009 µM [activator, full curve, poor fit] | 
64 | CC1CCN(C(=O)c2ccc3c(c2)OCCO3)CC1 |  | inactive: -24.3% [at 0.074 µM]
65 | Nc1nccs1 | inconclusive: 0.316 µM [activator, full curve, poor fit] | 
